# According to publication PMC8119952:
# Protein sequences, listed by entry. Tags and fused reporters are not part of them.
# UniProt P46527: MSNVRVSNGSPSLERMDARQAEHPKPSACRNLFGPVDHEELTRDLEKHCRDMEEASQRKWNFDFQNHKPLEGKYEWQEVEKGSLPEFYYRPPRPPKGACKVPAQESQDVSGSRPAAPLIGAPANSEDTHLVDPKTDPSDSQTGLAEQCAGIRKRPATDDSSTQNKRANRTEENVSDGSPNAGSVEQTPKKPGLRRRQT
# UniProt Q5SQI0: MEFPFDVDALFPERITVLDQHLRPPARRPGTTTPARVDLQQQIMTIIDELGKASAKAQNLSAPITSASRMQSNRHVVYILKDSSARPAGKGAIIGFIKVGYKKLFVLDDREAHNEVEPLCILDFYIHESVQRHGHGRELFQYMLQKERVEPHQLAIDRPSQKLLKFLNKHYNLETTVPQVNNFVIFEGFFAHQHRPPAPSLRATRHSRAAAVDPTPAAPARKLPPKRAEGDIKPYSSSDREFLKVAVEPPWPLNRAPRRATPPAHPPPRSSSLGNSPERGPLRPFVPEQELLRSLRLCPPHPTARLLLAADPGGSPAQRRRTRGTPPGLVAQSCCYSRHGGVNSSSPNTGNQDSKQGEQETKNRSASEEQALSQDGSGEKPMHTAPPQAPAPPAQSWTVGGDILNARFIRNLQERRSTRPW
# No constants are given. Whether binding was seen depends on the method and setting. In cells and extracts the contact can be indirect. Some entries that bind do so weakly or less than the wild type.
# Molecular target: p27^Kip1 (UniProt P46527)
# Test: co-IP; HEK 293 cells transfected with p27 and/or ATAT1-GFP for 24 h; lysis in IP buffer (150 mM NaCl, 50 mM HEPES pH 7.5, 1% NP-40, 1 mM EDTA, 2.5 mM EGTA, 0.1% Tween20, 10% glycerol); p27 immunoprecipitated from 500 µg of protein with 3 µg antibody on protein-A sepharose; bound ATAT1 detected with anti-GFP antibodies
substance,measurement,value
α-tubulin acetyltransferase (ATAT1) fused to GFP (from UniProt Q5SQI0 1-421) (enzyme),binding,binds
